Record: PubChem BioAssay AID1053209 (Peter MacCallum Cancer Centre, 2014)
Shown is an unselected part of about 1,580 reagents. 207 of them (13%) were called active. 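Rows are single siRNAs; four siRNAs per gene were tested, a gene counting as confirmed only when at least two agree.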 Entries without a mark were called inactive. The numbers tell different reagents against one gene apart. Reagent sequences are not shown.

Assay: 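Gene losses that combine with doxorubicin to kill mouse bone cancer cells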 (follow-up of hits)
System: mouse primary osteosarcoma cells
Reagents: single siRNA against mouse genes, 25 nM (text also states 40 nM)
Timing: about 120 h (48 h before drug, then 72 h with drug)
Challenge: doxorubicin 100 nM (about IC30-40), added 48 h after transfection, for 72 h
Read-out: 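ATP-based luminescent viability, with or without doxorubicin, relative to non-targeting control NT1, mean of two replicates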
Scale: viability with doxorubicin, vs NT1: higher = more viable cells under doxorubicin; viability ratio, doxorubicin over no drug: higher = less sensitisation to doxorubicin; viability without drug, vs NT1: higher = more viable cells without drug
Active means: 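Active when doxorubicin viability is at most 0.7 of NT1 and drug-free viability lies between 0.7 and 1.1, class LC dox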

| gene knocked down | siRNA no. | combined effect class | viability with doxorubicin, vs NT1 | viability ratio, doxorubicin over no drug | viability without drug, vs NT1 |
| --- | --- | --- | --- | --- | --- |
| Rbpms | 1 | normal viability with and without drug | 1.03 | 0.96 | 1.07 |
| Rbpms | 2 | normal viability with and without drug | 1.01 | 1.05 | 0.96 |
| Rbpms | 3 | normal viability with and without drug | 0.97 | 1.05 | 0.92 |
| Rbpms | 4 | normal viability with and without drug | 0.94 | 1.01 | 0.93 |
| Med26 | 1 | normal viability with and without drug | 0.94 | 0.98 | 0.96 |
| Med26 | 2 | normal viability with and without drug | 0.72 | 0.82 | 0.88 |
| Med26 | 3 | normal viability with and without drug | 0.76 | 0.85 | 0.89 |
| Med26 | 4 | low viability with and without drug | 0.34 | 0.57 | 0.6 |
| Napsa | 1 | high viability only without drug | 1 | 0.9 | 1.11 |
| Napsa | 2 | high viability only without drug | 0.98 | 0.87 | 1.13 |
| Napsa | 3 | normal viability with and without drug | 0.92 | 0.93 | 0.99 |
| Napsa | 4 | normal viability with and without drug | 0.82 | 1.08 | 0.76 |
| Copa | 1 | low viability only with doxorubicin; normal without drug (active) | 0.5 | 0.66 | 0.76 |
| Copa | 2 | low viability with and without drug | 0.16 | 0.5 | 0.32 |
| Copa | 3 | low viability with and without drug | 0.15 | 0.37 | 0.4 |
| Copa | 4 | low viability with and without drug | 0.05 | 0.28 | 0.18 |
| Snrpa | 1 | normal viability with and without drug | 0.96 | 0.99 | 0.97 |
| Snrpa | 2 | normal viability with and without drug | 0.94 | 1.07 | 0.88 |
| Snrpa | 3 | normal viability with and without drug | 0.76 | 0.79 | 0.96 |
| Snrpa | 4 | normal viability with and without drug | 0.9 | 0.94 | 0.96 |
| Sf3b5 | 1 | normal viability with and without drug | 0.98 | 0.99 | 0.99 |
| Sf3b5 | 2 | normal viability with and without drug | 1.04 | 1.11 | 0.94 |
| Sf3b5 | 3 | low viability with and without drug | 0.11 | 0.61 | 0.18 |
| Sf3b5 | 4 | low viability only with doxorubicin; normal without drug (active) | 0.42 | 0.53 | 0.79 |
| Rpl9 | 1 | low viability with and without drug | 0.32 | 1.03 | 0.31 |
| Rpl9 | 2 | low viability with and without drug | 0.24 | 0.65 | 0.37 |
| Rpl9 | 3 | low viability with and without drug | 0.24 | 1.2 | 0.2 |
| Rpl9 | 4 | low viability with and without drug | 0.25 | 0.76 | 0.33 |
| Ikzf1 | 1 | normal viability with and without drug | 0.96 | 1.04 | 0.92 |
| Ikzf1 | 2 | normal viability with and without drug | 1.02 | 1.06 | 0.96 |
| Ikzf1 | 3 | normal viability with and without drug | 1.02 | 1.13 | 0.9 |
| Ikzf1 | 4 | normal viability with and without drug | 1.05 | 1.07 | 0.98 |
| Sash3 | 1 | normal viability with and without drug | 0.74 | 0.84 | 0.88 |
| Sash3 | 2 | high viability only without drug | 1.04 | 0.95 | 1.1 |
| Sash3 | 3 | normal viability with and without drug | 1.04 | 1.02 | 1.02 |
| Sash3 | 4 | normal viability with and without drug | 0.94 | 1.02 | 0.92 |
| Rpl19 | 1 | normal viability with and without drug | 1.04 | 1.04 | 1 |
| Rpl19 | 2 | low viability with and without drug | 0.46 | 0.77 | 0.6 |
| Rpl19 | 3 | low viability with and without drug | 0.56 | 0.8 | 0.7 |
| Rpl19 | 4 | low viability with and without drug | 0.35 | 0.57 | 0.61 |
| Nop58 | 1 | normal viability with and without drug | 0.85 | 0.9 | 0.94 |
| Nop58 | 2 | low viability with and without drug | 0.6 | 0.88 | 0.68 |
| Nop58 | 3 | normal viability with and without drug | 1.08 | 1.06 | 1.02 |
| Nop58 | 4 | normal viability with and without drug | 1.09 | 1.01 | 1.08 |
| Med15 | 1 | normal viability with and without drug | 0.9 | 0.87 | 1.04 |
| Med15 | 2 | normal viability with and without drug | 0.82 | 0.8 | 1.02 |
| Med15 | 3 | normal viability with and without drug | 1.04 | 0.98 | 1.06 |
| Med15 | 4 | normal viability with and without drug | 0.82 | 0.9 | 0.91 |
| Aqp3 | 1 | normal viability with and without drug | 0.84 | 1.05 | 0.8 |
| Aqp3 | 2 | normal viability with and without drug | 0.78 | 0.84 | 0.93 |
| Aqp3 | 3 | low viability only with doxorubicin; normal without drug (active) | 0.68 | 0.71 | 0.96 |
| Aqp3 | 4 | normal viability with and without drug | 1.02 | 1 | 1.02 |
| Isy1 | 1 | low viability only with doxorubicin; normal without drug (active) | 0.4 | 0.56 | 0.72 |
| Isy1 | 2 | normal viability with and without drug | 0.97 | 0.98 | 0.99 |
| Isy1 | 3 | low viability with and without drug | 0.32 | 0.59 | 0.54 |
| Isy1 | 4 | normal viability with and without drug | 0.84 | 0.85 | 0.99 |
| Sf3b3 | 1 | low viability only with doxorubicin; normal without drug (active) | 0.65 | 0.76 | 0.85 |
| Sf3b3 | 2 | low viability only with doxorubicin; normal without drug (active) | 0.44 | 0.56 | 0.78 |
| Sf3b3 | 3 | low viability only with doxorubicin; normal without drug (active) | 0.6 | 0.67 | 0.9 |
| Sf3b3 | 4 | normal viability with and without drug | 0.74 | 0.79 | 0.94 |
| U2surp | 1 | normal viability with and without drug | 0.9 | 0.93 | 0.97 |
| U2surp | 2 | normal viability with and without drug | 0.93 | 0.99 | 0.94 |
| U2surp | 3 | normal viability with and without drug | 0.92 | 0.88 | 1.05 |
| U2surp | 4 | high viability only with doxorubicin | 1.1 | 1.06 | 1.04 |
| Psmc2 | 1 | normal viability with and without drug | 1.04 | 1.09 | 0.95 |
| Psmc2 | 2 | low viability with and without drug | 0.12 | 0.4 | 0.3 |
| Psmc2 | 3 | low viability with and without drug | 0.36 | 0.62 | 0.58 |
| Psmc2 | 4 | low viability with and without drug | 0.22 | 0.48 | 0.46 |
| Psma5 | 1 | low viability only with doxorubicin; normal without drug (active) | 0.43 | 0.51 | 0.84 |
| Psma5 | 2 | low viability with and without drug | 0.16 | 0.44 | 0.36 |
| Psma5 | 3 | low viability only with doxorubicin; normal without drug (active) | 0.69 | 0.88 | 0.78 |
| Psma5 | 4 | low viability only with doxorubicin; normal without drug (active) | 0.59 | 0.66 | 0.9 |
| Uba1 | 1 | normal viability with and without drug | 0.88 | 0.98 | 0.9 |
| Uba1 | 2 | normal viability with and without drug | 0.8 | 0.93 | 0.86 |
| Uba1 | 3 | normal viability with and without drug | 1.02 | 1 | 1.02 |
| Uba1 | 4 | normal viability with and without drug | 1.03 | 1.07 | 0.96 |
